The list shows only some results of the screen, not a fair sample: it is rich in T/C values a quarter to a half above the control, in often repeated tests (any T/C) and in doses without a T/C. Other doses and runs of a compound stand elsewhere. T/C is the treated group as % of the vehicle group. Some entries give survivors of the animals treated and no T/C: the source files T/C as zero there, which appears to mark a toxic dose or a test without result, not a measured value. Some survivor counts are full or nearly so, which does not show that the dose was tolerated: survival well below the control is almost never listed, so the zero probably covers shortened survival too. Counts of survivors are from the toxicity check (mostly the fifth day) where no day follows; animals may have died later. Schedule codes are those of the source, taken here to give the interval after Q, in days (D) or hours (H), and the number of doses after X. Some entries were tested several times; the results are listed from low to high. Where survival is the endpoint, this PubChem deposit counts one and a half times the control or more as active, and values a quarter to a half above the control carry no call in these data; other NCI protocols may use other cut-offs.
Test system: L1210 leukemia ip in BDF1 mice, survival T/C
Assay: NCI In Vivo Anticancer Drug Screen. Data for tumor model L1210 Leukemia (intraperitoneal) in B6D2F1 (BDF1) mice
Details: higher T/C = longer survival
[1] = T/C endpoint: median survival time, dose: 0.25 mg/kg/injection, schedule: Q01DX009 (oral), vehicle: saline + alcohol

In the case of `C[n+]1ccc2cc(-c3ccccc3)c3ccccc3c2c1`, the survivor count (T/C endpoint: mean survival time, dose: 25.0 mg/kg/injection, schedule: Q01DX009 (ip), vehicle: water) is reported as 0 of 6, the survivor count (T/C endpoint: mean survival time, dose: 50.0 mg/kg/injection, schedule: Q04DX003 (ip), vehicle: water) is reported as 0 of 6 and the survivor count (T/C endpoint: mean survival time, dose: 100.0 mg/kg/injection, schedule: Q04DX003 (ip), vehicle: water) is reported as 0 of 6. The survivor count (T/C endpoint: mean survival time, dose: 200.0 mg/kg/injection, schedule: Q04DX003 (ip), vehicle: water) was 0 of 6 and the survivor count (T/C endpoint: mean survival time, dose: 400.0 mg/kg/injection, schedule: Q04DX003 (ip), vehicle: water) was 0 of 6.

In the case of `CC(C)(C)OC(=O)NC(CSC(c1ccccc1)(c1ccccc1)c1ccccc1)C(=O)NC(Cc1ccccc1)C(=O)NCC(=O)O` (centres undefined), the survivor count (T/C endpoint: mean survival time, dose: 300.0 mg/kg/injection, schedule: Q01DX001 (ip), vehicle: saline) is reported as 3 of 6.

For `CCC12CC3(C(=O)OC)OC1C(O)CN1CCc4c(n3c3cc(OC)ccc43)C12` (centres undefined), the survivor count (T/C endpoint: mean survival time, dose: 100.0 mg/kg/injection, schedule: Q04DX002 (ip), vehicle: saline with Tween-80) was 3 of 3.

For `CC(C)[C@]12O[C@H]1[C@@H]1O[C@]13[C@]1(O[C@H]1C[C@H]1C4=C(C(=O)OC4)[C@@H](O)C[C@@]13C)[C@@H]2O`, the T/C (T/C endpoint: mean survival time, dose: 6.5 micrograms/kg/injection, schedule: Q01DX009 (ip), vehicle: saline) was 134 % of control, the survivor count (T/C endpoint: mean survival time, dose: 12.5 micrograms/kg/injection, schedule: Q01DX009 (ip), vehicle: saline) was 6 of 6 and the survivor count (T/C endpoint: mean survival time, dose: 25.0 micrograms/kg/injection, schedule: Q01DX009 (ip), vehicle: saline) was 6 of 6. For the same molecule, the T/C (T/C endpoint: mean survival time, dose: 50.0 micrograms/kg/injection, schedule: Q01DX009 (ip), vehicle: saline, evaluated on day 30) was 129 % of control, the T/C (T/C endpoint: mean survival time, dose: 50.0 micrograms/kg/injection, schedule: Q01DX009 (ip), vehicle: saline, evaluated on day 60) was 128 % of control and the survivor count (T/C endpoint: mean survival time, dose: 50.0 micrograms/kg/injection, schedule: Q01DX009 (ip), vehicle: saline) was 6 of 6. For the same molecule, the survivor count (T/C endpoint: mean survival time, dose: 75.0 micrograms/kg/injection, schedule: Q01DX009 (oral), vehicle: saline + alcohol) was 2 of 7, the T/C (T/C endpoint: mean survival time, dose: 100.0 micrograms/kg/injection, schedule: Q01DX009 (ip), vehicle: saline) was 147 % of control and the survivor count (T/C endpoint: mean survival time, dose: 150.0 micrograms/kg/injection, schedule: Q01DX009 (oral), vehicle: saline + alcohol) was 4 of 7. The survivor count (T/C endpoint: mean survival time, dose: 200.0 micrograms/kg/injection, schedule: Q01DX009 (ip), vehicle: saline) was 6 of 6, the survivor count (T/C endpoint: mean survival time, dose: 300.0 micrograms/kg/injection, schedule: Q01DX009 (oral), vehicle: saline + alcohol) was 0 of 7 and the survivor count (T/C endpoint: mean survival time, dose: 400.0 micrograms/kg/injection, schedule: Q01DX009 (ip), vehicle: saline) was 0 of 10 and 4 of 6. The survivor count (T/C endpoint: mean survival time, dose: 600.0 micrograms/kg/injection, schedule: Q01DX009 (oral), vehicle: saline + alcohol) was 0 of 7, the T/C (T/C endpoint: median survival time, dose: 0.06 mg/kg/injection, schedule: Q01DX009 (ip), vehicle: saline + alcohol) was 129 % of control and the T/C (T/C endpoint: median survival time, dose: 0.12 mg/kg/injection, schedule: Q01DX009 (ip), vehicle: saline + alcohol) was 145 % of control. The T/C (T/C endpoint: median survival time, dose: 0.12 mg/kg/injection, schedule: Q01DX009 (ip), vehicle: saline with Tween-80) was 144 % of control, the T/C (T/C endpoint: median survival time, dose: 0.13 mg/kg/injection, schedule: Q01DX009 (ip), vehicle: saline with Tween-80) was 145 % of control and the T/C [1] was 136 % of control. For the same molecule, the survivor count [1] was 6 of 10, the survivor count (T/C endpoint: median survival time, dose: 0.5 mg/kg/injection, schedule: Q01DX009 (ip), vehicle: saline + alcohol) was 3 of 10 and the survivor count (T/C endpoint: median survival time, dose: 0.5 mg/kg/injection, schedule: Q01DX009 (ip), vehicle: saline with Tween-80) was 4 of 10 and 5 of 10. The survivor count (T/C endpoint: median survival time, dose: 0.5 mg/kg/injection, schedule: Q01DX009 (oral), vehicle: saline + alcohol) was 0 of 10 and 3 of 10, the survivor count (T/C endpoint: median survival time, dose: 0.5 mg/kg/injection, schedule: Q01DX009 (sc), vehicle: saline + alcohol) was 8 of 10 and the survivor count (T/C endpoint: median survival time, dose: 1.0 mg/kg/injection, schedule: Q01DX001 (ip), vehicle: saline + alcohol) was 0 of 10. For the same molecule, the survivor count (T/C endpoint: median survival time, dose: 1.0 mg/kg/injection, schedule: Q01DX009 (ip), vehicle: saline + alcohol) was 0 of 10, the survivor count (T/C endpoint: median survival time, dose: 1.0 mg/kg/injection, schedule: Q01DX009 (ip), vehicle: saline with Tween-80) was 0 of 10 and the survivor count (T/C endpoint: median survival time, dose: 1.0 mg/kg/injection, schedule: Q01DX009 (oral), vehicle: saline + alcohol) was 0 of 10. For the same molecule, the survivor count (T/C endpoint: median survival time, dose: 1.0 mg/kg/injection, schedule: Q01DX009 (sc), vehicle: saline + alcohol) was 0 of 10, the survivor count (T/C endpoint: median survival time, dose: 1.0 mg/kg/injection, schedule: Q04DX003 (ip), vehicle: saline + alcohol) was 2 of 10 and the survivor count (T/C endpoint: median survival time, dose: 1.0 mg/kg/injection, schedule: Q08DX002 (ip), vehicle: saline + alcohol) was 0 of 10. For the same molecule, the survivor count (T/C endpoint: median survival time, dose: 2.0 mg/kg/injection, schedule: Q01DX001 (ip), vehicle: saline + alcohol) was 0 of 10, the survivor count (T/C endpoint: median survival time, dose: 2.0 mg/kg/injection, schedule: Q01DX009 (ip), vehicle: saline + alcohol) was 0 of 10 and the survivor count (T/C endpoint: median survival time, dose: 2.0 mg/kg/injection, schedule: Q01DX009 (ip), vehicle: saline with Tween-80) was 0 of 10. For the same molecule, the survivor count (T/C endpoint: median survival time, dose: 2.0 mg/kg/injection, schedule: Q01DX009 (oral), vehicle: saline + alcohol) was 0 of 10, the survivor count (T/C endpoint: median survival time, dose: 2.0 mg/kg/injection, schedule: Q01DX009 (sc), vehicle: saline + alcohol) was 0 of 10 and the survivor count (T/C endpoint: median survival time, dose: 2.0 mg/kg/injection, schedule: Q08DX002 (ip), vehicle: saline + alcohol) was 0 of 10. The survivor count (T/C endpoint: median survival time, dose: 4.0 mg/kg/injection, schedule: Q01DX001 (ip), vehicle: saline + alcohol) was 0 of 10, the survivor count (T/C endpoint: median survival time, dose: 4.0 mg/kg/injection, schedule: Q01DX009 (oral), vehicle: saline + alcohol) was 0 of 10 and the T/C (T/C endpoint: median survival time, dose: 15.6 micrograms/kg/injection, schedule: Q03HX016 (ip), vehicle: saline + alcohol) was 126 % of control. The T/C (T/C endpoint: median survival time, dose: 15.6 micrograms/kg/injection, schedule: Q03HX024 (ip), vehicle: saline + alcohol) was 129 % of control, the T/C (T/C endpoint: median survival time, dose: 31.2 micrograms/kg/injection, schedule: Q03HX016 (ip), vehicle: saline + alcohol) was 135 % of control and the survivor count (T/C endpoint: median survival time, dose: 31.3 micrograms/kg/injection, schedule: Q03HX024 (oral), vehicle: saline + alcohol) was 3 of 10. The survivor count (T/C endpoint: median survival time, dose: 62.5 micrograms/kg/injection, schedule: Q03HX008 (ip), vehicle: saline + alcohol) was 5 of 10, the T/C (T/C endpoint: median survival time, dose: 62.5 micrograms/kg/injection, schedule: Q03HX016 (ip), vehicle: saline + alcohol) was 137 % of control and the survivor count (T/C endpoint: median survival time, dose: 62.5 micrograms/kg/injection, schedule: Q03HX024 (oral), vehicle: saline + alcohol) was 1 of 10 and 3 of 10. The survivor count (T/C endpoint: median survival time, dose: 125.0 micrograms/kg/injection, schedule: Q03HX008 (ip), vehicle: saline + alcohol) was 0 of 10, the survivor count (T/C endpoint: median survival time, dose: 125.0 micrograms/kg/injection, schedule: Q03HX016 (ip), vehicle: saline + alcohol) was 0 of 10 and the survivor count (T/C endpoint: median survival time, dose: 125.0 micrograms/kg/injection, schedule: Q03HX024 (ip), vehicle: saline + alcohol) was 0 of 10. The survivor count (T/C endpoint: median survival time, dose: 125.0 micrograms/kg/injection, schedule: Q03HX024 (oral), vehicle: saline + alcohol) was 0 of 10, the survivor count (T/C endpoint: median survival time, dose: 125.0 micrograms/kg/injection, schedule: Q03HX024 (sc), vehicle: saline + alcohol) was 0 of 10 and the survivor count (T/C endpoint: median survival time, dose: 250.0 micrograms/kg/injection, schedule: Q03HX008 (ip), vehicle: saline + alcohol) was 0 of 10. The survivor count (T/C endpoint: median survival time, dose: 250.0 micrograms/kg/injection, schedule: Q03HX016 (ip), vehicle: saline + alcohol) was 0 of 10, the survivor count (T/C endpoint: median survival time, dose: 250.0 micrograms/kg/injection, schedule: Q03HX024 (oral), vehicle: saline + alcohol) was 0 of 10 and the survivor count (T/C endpoint: median survival time, dose: 500.0 micrograms/kg/injection, schedule: Q03HX008 (ip), vehicle: saline + alcohol) was 0 of 10.

With `COCc1nc2c(=S)nc[nH]c2n1N` the survivor count (T/C endpoint: mean survival time, dose: 400.0 mg/kg/injection, schedule: Q01DX001 (ip), vehicle: carboxymethylcellulose (CMC)) was 3 of 6.

In the case of `COc1ccc(/C=C/C(C)=O)cc1OC`, the survivor count (T/C endpoint: mean survival time, dose: 25.0 mg/kg/injection, schedule: Q01DX009 (ip), vehicle: saline) is reported as 6 of 6, the survivor count (T/C endpoint: mean survival time, dose: 50.0 mg/kg/injection, schedule: Q01DX009 (ip), vehicle: saline) is reported as 5 of 6 and the survivor count (T/C endpoint: mean survival time, dose: 100.0 mg/kg/injection, schedule: Q01DX009 (ip), vehicle: saline) is reported as 6 of 6. For the same molecule, the survivor count (T/C endpoint: mean survival time, dose: 200.0 mg/kg/injection, schedule: Q01DX009 (ip), vehicle: saline) was 6 of 6 and the survivor count (T/C endpoint: mean survival time, dose: 400.0 mg/kg/injection, schedule: Q01DX009 (ip), vehicle: saline) was 6 of 6.

`Nc1cnccc1NCCN1CCN(c2ccccc2)CC1` was tested, and the survivor count (T/C endpoint: mean survival time, dose: 200.0 mg/kg/injection, schedule: Q01DX001 (ip), vehicle: saline) was 0 of 4 and the survivor count (T/C endpoint: mean survival time, dose: 400.0 mg/kg/injection, schedule: Q01DX001 (ip), vehicle: saline) was 0 of 4.

Source: PubChem BioAssay AID248 (DTP/NCI, 2004)
